The experiment deals with FLAG-OPRK1, co-expressed in HEK293T cells (UniProt P41145). Description: co-IP; FLAG-OPRK1 co-expressed with GFP-SLC9A3R1 constructs (full length, truncations, point mutants); HEK293T cells stated for Fig. 7B, cells of Fig. 7D not stated; NP-40 buffer; FLAG beads, 4 °C, 3 h; immunoblot.

Chains of the proteins cited; added tags and fusions are not shown.
UniProt P41145: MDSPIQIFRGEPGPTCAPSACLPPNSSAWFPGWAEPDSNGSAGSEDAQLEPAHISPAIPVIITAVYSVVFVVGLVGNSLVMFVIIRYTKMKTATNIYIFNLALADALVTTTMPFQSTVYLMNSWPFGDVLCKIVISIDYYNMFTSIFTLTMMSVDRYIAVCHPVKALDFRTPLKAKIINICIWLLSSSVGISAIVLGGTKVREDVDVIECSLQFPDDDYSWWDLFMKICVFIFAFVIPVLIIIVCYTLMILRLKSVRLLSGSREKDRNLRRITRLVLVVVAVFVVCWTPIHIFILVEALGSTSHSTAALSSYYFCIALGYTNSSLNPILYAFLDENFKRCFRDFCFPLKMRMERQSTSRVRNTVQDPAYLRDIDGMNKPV

Results on two molecules are retold here after paper PMC12828004.

Numbering of substitutions follows the chain as printed. In names and notes the source's numbering stands. No constants are given. Whether binding was seen depends on the method and setting. In cells and extracts the contact can be indirect. Some entries that bind do so weakly or less than the wild type.

B1: SLC9A3R1 Q73A point mutant (protein, UniProt O14745 1-358)
chain: MSADAAAGAPLPRLCCLEKGPNGYGFHLHGEKGKLGQYIRLVEPGSPAEKAGLLAGDRLVEVNGENVEKETHAQVVSRIRAALNAVRLLVVDPETDEQLQKLGVQVREELLRAQEAPGQAEPPAAAEVQGAGNENEPREADKSHPEQRELRPRLCTMKKGPSGYGFNLHSDKSKPGQFIRSVDPDSPAEASGLRAQDRIVEVNGVCMEGKQHGDVVSAIRAGGDETKLLVVDRETDEFFKKCRVIPSQEHLNGPLPVPFTNGEIQKENSREALAEAALESPRPALVRSASSDTSEELNSQDSPPKQDSTAPSSTSSSDPILDFNISLAMAKERAHQKRSSKRAPQMDWSKKNELFSNL
On to B1, for which the binding entry is “binds”.

B2: SLC9A3R1 S77A point mutant (protein, UniProt O14745 1-358)
chain: B1 chain with A73Q, S77A
Turning to B2, the binding result was “binds”.
